Measured values: PMC8786784
No constants are given. Whether binding was seen depends on the method and setting. In cells and extracts the contact can be indirect. Here binding means that the protein was enriched with, or labelled near, the bait; the list need not be complete. For some assays here: No binding means not detected with the bait.

Protein sequences, listed by entry. Tags and fused reporters are not part of them.
UniProt Q13509: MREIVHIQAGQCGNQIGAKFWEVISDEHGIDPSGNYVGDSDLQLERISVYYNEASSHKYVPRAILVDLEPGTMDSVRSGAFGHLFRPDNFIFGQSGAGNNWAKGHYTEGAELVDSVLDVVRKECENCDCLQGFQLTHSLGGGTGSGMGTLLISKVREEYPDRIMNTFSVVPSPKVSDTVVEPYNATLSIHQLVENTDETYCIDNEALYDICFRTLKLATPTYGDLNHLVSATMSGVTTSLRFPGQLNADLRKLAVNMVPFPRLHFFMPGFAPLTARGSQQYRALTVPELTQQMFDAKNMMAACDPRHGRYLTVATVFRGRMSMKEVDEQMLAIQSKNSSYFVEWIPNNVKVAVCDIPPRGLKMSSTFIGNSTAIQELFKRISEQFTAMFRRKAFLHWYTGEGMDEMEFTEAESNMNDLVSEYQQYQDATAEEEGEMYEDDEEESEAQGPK
UniProt P12235: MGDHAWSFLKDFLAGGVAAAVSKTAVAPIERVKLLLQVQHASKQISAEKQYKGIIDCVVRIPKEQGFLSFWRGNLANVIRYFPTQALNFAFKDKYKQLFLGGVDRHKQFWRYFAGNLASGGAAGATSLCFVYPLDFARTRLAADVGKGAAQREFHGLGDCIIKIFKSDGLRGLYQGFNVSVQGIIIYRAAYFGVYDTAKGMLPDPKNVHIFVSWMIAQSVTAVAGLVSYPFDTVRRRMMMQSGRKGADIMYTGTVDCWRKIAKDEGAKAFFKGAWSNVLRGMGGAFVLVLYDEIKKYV
UniProt P60520: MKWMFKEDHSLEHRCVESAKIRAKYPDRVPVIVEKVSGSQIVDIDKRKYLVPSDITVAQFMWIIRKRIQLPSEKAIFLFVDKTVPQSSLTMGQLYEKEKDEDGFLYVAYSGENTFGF
UniProt Q9Y2J2: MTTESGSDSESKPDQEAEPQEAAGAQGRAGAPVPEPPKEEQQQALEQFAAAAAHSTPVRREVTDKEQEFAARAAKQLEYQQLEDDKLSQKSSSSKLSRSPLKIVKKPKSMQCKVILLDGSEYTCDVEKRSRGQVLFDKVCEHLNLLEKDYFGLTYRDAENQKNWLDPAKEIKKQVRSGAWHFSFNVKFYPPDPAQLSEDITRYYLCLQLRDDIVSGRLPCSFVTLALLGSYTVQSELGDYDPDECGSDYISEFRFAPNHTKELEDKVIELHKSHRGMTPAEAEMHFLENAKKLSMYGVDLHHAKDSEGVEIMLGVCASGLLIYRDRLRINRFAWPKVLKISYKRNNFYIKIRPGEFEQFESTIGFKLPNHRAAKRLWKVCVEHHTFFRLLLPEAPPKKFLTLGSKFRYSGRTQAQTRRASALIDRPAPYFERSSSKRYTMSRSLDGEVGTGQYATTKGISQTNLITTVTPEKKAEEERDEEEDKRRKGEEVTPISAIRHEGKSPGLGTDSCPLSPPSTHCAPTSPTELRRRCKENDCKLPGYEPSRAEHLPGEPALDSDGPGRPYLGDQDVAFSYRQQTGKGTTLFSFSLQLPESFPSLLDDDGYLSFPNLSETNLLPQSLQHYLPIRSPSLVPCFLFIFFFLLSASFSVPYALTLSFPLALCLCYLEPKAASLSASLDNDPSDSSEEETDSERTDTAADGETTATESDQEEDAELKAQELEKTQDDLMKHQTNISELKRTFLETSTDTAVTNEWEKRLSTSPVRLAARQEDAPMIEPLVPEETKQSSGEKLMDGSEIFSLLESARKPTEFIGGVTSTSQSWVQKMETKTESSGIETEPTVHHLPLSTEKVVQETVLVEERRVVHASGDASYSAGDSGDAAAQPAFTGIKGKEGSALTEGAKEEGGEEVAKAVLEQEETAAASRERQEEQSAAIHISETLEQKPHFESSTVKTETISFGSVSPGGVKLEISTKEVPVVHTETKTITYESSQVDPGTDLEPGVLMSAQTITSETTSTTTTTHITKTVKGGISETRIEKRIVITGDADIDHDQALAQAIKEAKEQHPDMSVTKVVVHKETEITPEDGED
UniProt P21579: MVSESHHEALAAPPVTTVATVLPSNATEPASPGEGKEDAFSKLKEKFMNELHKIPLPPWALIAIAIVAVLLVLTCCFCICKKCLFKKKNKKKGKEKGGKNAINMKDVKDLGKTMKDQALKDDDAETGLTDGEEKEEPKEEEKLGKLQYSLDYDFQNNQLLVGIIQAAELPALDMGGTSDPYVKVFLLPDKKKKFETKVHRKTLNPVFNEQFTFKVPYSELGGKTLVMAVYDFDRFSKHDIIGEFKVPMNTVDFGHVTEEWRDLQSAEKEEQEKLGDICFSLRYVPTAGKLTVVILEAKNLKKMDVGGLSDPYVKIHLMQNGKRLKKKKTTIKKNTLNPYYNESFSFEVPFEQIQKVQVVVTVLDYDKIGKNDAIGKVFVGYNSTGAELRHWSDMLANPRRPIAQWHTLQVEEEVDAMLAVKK
UniProt O43813: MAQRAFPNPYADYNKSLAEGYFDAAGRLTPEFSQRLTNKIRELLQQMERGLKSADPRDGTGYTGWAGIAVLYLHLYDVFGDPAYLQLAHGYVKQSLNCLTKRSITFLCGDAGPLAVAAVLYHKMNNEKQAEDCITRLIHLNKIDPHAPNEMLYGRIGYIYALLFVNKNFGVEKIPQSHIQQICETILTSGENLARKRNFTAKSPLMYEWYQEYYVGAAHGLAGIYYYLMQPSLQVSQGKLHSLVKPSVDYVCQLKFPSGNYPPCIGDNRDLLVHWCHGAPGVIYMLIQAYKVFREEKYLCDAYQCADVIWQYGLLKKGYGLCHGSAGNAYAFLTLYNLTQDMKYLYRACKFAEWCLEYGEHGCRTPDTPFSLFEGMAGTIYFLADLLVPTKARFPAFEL
UniProt P78559: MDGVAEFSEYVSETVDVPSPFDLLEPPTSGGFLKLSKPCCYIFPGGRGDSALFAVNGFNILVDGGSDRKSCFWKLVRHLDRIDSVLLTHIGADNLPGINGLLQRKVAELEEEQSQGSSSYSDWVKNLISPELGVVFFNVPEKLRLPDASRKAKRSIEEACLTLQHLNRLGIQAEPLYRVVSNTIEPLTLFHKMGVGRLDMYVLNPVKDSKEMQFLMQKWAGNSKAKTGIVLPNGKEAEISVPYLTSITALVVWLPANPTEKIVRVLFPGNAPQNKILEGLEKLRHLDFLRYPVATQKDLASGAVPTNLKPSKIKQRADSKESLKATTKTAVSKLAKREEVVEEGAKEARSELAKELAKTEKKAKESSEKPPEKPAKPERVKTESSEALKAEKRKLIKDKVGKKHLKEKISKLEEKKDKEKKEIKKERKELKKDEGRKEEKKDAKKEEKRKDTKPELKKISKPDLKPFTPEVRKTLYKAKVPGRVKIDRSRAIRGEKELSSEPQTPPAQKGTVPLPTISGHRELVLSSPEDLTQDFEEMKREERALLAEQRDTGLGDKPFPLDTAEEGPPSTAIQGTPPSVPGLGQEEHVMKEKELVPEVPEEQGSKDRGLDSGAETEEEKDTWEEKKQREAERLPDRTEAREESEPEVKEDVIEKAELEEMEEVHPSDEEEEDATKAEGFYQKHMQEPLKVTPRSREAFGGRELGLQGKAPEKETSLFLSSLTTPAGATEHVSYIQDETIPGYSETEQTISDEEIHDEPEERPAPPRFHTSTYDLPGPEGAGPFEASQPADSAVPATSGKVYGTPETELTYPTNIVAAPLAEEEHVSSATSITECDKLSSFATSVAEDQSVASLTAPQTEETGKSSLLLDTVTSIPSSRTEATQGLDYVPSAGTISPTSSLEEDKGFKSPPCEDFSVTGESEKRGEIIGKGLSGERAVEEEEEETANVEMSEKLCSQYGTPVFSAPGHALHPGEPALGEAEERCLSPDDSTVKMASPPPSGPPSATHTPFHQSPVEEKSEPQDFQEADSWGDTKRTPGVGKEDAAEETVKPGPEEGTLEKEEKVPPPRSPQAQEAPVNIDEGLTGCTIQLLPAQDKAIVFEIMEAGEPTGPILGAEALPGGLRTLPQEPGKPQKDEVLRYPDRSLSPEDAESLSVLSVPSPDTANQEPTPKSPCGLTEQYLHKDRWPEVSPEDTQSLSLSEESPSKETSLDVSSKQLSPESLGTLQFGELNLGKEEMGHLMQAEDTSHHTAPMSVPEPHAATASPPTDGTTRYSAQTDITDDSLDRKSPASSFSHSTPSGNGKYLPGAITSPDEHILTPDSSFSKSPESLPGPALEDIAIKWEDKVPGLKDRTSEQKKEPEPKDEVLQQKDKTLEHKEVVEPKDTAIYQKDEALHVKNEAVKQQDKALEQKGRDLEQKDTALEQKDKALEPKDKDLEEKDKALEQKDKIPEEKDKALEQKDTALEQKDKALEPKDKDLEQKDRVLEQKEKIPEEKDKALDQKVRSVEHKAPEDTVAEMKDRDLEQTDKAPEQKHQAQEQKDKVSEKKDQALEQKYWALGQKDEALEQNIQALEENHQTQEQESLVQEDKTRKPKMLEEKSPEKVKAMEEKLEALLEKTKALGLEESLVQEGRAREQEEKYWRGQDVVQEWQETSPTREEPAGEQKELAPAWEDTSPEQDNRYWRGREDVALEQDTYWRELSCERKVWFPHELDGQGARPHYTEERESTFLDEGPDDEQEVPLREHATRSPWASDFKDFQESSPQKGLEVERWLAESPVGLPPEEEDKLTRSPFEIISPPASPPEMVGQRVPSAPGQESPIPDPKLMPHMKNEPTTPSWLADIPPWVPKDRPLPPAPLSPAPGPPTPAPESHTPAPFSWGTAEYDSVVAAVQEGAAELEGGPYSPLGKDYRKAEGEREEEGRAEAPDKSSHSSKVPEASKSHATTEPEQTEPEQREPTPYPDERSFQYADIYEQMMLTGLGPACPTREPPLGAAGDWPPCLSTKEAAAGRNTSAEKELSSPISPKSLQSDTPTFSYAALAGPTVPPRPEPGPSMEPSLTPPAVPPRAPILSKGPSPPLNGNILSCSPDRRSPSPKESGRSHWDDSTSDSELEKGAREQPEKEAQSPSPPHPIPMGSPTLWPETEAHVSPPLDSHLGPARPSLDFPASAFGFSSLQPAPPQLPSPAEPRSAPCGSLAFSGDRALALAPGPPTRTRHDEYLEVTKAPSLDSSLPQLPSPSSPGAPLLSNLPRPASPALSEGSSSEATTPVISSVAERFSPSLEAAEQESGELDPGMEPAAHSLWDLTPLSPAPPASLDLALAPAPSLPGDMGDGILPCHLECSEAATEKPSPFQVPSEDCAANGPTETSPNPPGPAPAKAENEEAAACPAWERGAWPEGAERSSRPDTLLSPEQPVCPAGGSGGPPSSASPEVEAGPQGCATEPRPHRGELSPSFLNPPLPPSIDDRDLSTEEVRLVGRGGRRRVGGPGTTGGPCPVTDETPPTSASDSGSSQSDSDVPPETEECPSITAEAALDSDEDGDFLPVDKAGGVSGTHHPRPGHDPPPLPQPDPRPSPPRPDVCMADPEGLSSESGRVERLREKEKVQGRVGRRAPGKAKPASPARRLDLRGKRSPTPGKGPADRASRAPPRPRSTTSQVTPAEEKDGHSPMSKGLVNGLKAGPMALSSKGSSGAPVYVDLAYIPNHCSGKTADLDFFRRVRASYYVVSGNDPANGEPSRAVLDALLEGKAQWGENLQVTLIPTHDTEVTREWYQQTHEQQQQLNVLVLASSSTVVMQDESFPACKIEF

Legend:
[1] = molecular target: amyloid-β (Aβ) peptide (human (endogenous in brain tissue)) (UniProt P05067); assay: affinity purification with mass spectrometry; co-IP of Aβ from the tris-soluble fraction (500 ug protein) of human frontal cortex (controls, sAD, rpAD; n = 4) on Dynabeads coated with antibodies 4G8 and 6E10, overnight at 4 °C, washes with 0.3% CHAPS; LC-ESI MS/MS of the tryptic digest
[2] = molecular target: amyloid-β (Aβ) peptide (human (endogenous in brain tissue)) (UniProt P05067); assay: condition: only tris-soluble fraction of sAD brains; affinity purification with mass spectrometry; as a1, tris-soluble fraction of sAD brains only

Row | binding [1] | binding [2] | Substance
1 | binds |  | Tubulin beta-3 chain (from UniProt Q13509 1-450)
2 | binds |  | ADP/ATP translocase 1 (from UniProt P12235 1-298)
3 | binds |  | GABA receptor-associated protein-like 2 (from UniProt P60520 1-117)
4 | binds |  | Band 4.1-like protein 3 (from UniProt Q9Y2J2 1-1087)
5 | binds | no binding | Synaptotagmin-1 (from UniProt P21579 1-422)
6 | binds |  | LanC-like protein 1 (from UniProt O43813 1-399)
7 | binds |  | Microtubule-associated protein 1A (from UniProt P78559 1-2803)
8 | binds |  | ATP synthase subunit beta (from UniProt P06576 48-529)
9 | binds | no binding | GTPase KRas (from UniProt P01116 1-189)
